Patent US12416036B2, “High-throughput enzyme assay for screening activity of acyltransferases” (CORNELL UNIVERSITY, priority 2021, dated 2025)
Some of these results come from one statement about several compounds together.

Target: T1, ZDHHC3 (Homo sapiens, UniProt Q9NYG2)
T1 construct: HA; expressed in transfected cells; host or cells: HEK 293T cells
T1 sequence (Q9NYG2 1-299): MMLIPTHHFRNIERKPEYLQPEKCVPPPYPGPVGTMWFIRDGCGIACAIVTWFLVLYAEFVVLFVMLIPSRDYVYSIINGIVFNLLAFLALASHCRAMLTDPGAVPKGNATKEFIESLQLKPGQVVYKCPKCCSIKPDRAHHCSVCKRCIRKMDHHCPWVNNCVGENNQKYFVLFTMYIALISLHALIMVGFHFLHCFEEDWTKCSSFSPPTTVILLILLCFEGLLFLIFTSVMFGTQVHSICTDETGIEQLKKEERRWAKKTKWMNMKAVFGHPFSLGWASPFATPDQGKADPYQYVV
Assay: STAT3 fatty acylation induced by ZDHHC3 in HEK293T cells (Alk14 labeling, in-gel fluorescence)
Assay type: cell-based
Settings: 25 μM, 6-hour treatment
Excerpt: Next experiments also tested the four compounds for ZDHHC3 inhibition in HEK293T cells that over-express both ZDHHC3 and STAT3. […] Thus, the results from the Acyl-cLIP assay can be used to predict cellular responses.

CCCCCCCCCCCCCCC(Br)C(=O)SCCNC(C)=O [MY-D-4, S-(2-acetamidoethyl) 2-bromohexadecanethioate]
decrease of ZDHHC3-catalyzed STAT3 acylation: more than 50%
